Test results published in PMC4499774.

Amino acid sequences for entries named in this document (tags omitted). A change or cut given only in a name is not applied to a line headed by its entry.
UniProt O85041: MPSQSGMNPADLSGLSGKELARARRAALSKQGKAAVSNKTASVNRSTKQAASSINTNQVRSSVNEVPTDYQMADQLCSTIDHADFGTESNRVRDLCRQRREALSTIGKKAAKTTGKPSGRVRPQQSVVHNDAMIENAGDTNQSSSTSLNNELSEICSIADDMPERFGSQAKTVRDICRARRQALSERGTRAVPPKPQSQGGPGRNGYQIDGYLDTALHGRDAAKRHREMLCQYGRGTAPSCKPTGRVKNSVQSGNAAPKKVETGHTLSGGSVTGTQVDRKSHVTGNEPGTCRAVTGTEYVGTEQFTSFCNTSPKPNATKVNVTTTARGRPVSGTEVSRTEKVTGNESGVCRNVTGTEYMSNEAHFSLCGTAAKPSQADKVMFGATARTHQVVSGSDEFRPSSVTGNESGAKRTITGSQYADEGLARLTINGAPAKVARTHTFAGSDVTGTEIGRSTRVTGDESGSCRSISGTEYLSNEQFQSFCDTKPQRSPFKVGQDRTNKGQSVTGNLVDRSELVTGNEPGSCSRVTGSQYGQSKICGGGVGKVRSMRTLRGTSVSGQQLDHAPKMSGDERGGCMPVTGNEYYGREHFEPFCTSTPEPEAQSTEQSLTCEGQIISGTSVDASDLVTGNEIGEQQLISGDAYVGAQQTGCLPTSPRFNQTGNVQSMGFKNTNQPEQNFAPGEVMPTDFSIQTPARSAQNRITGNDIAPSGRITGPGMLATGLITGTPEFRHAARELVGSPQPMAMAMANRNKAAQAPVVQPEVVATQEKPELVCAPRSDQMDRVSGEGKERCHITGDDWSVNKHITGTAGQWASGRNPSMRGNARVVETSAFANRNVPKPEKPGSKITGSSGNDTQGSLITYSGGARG

Biological target: SPA-tagged Hnea CsoS2B (full length CsoS2 with C-terminal SPA tag, in HnSPAS2 mutant carboxysomes) (Halothiobacillus neapolitanus) (UniProt O85041)
Assay: co-IP; purified HnSPAS2 mutant carboxysomes bound to agarose beads conjugated with α-FLAG antibodies, eluted with 100 mM glycine buffer, pH 2.5; eluate analysed by SDS-PAGE and densitometry; the trapped carboxysomes were taken to be intact

With “Hnea CsoS2A (short form of CsoS2, in HnSPAS2 mutant carboxysomes) (from UniProt O85041-2)” the binding was “binds”.

These are yes or no findings as the source states them, for the method shown. Binding seen in cells or lysates may run through a third protein. A result given as binding can be weak or reduced; the word gives no strength.
